Laboratory results taken from PubChem BioAssay AID248 (DTP/NCI, 2004).
The list shows only some results of the screen, not a fair sample: it gathers tests that were run many times, whatever their T/C, doses with no T/C, and many T/C values between a quarter and a half above the control. Other doses and runs of a compound stand elsewhere. T/C gives the treated animals as a percentage of the vehicle group. Some doses have a count of surviving animals in place of a T/C: the source holds a T/C of zero for them, seemingly a mark for toxic or unscored doses. Some survivor counts are full or nearly so, which does not show that the dose was tolerated: the source hardly ever lists a survival T/C far under the control, and the zero likely stands for such cases as well. Survivors were counted at the toxicity check, usually on the fifth day, unless a day is given; later deaths do not show. Schedules are NCI's codes, read here as Q, the interval in days (D) or hours (H), X, the number of doses. Some entries were tested several times; the results are listed from low to high. Where survival is the endpoint, this PubChem deposit counts one and a half times the control or more as active, and values a quarter to a half above the control carry no call in these data; other NCI protocols may use other cut-offs. Counts like (3×) give the number of equal values in this list.

Test system: L1210 leukemia ip in BDF1 mice, survival T/C
Assay: NCI In Vivo Anticancer Drug Screen. Data for tumor model L1210 Leukemia (intraperitoneal) in B6D2F1 (BDF1) mice
Details: higher T/C = longer survival
[1] = T/C endpoint: mean survival time, dose: 400.0 mg/kg/injection, schedule: Q01DX009 (ip), vehicle: Klucel (hydroxypropylcellulose) (HPC)
[2] = T/C endpoint: mean survival time, dose: 80.0 mg/kg/injection, schedule: Q01DX001 (ip), vehicle: saline
[3] = T/C endpoint: mean survival time, dose: 100.0 mg/kg/injection, schedule: Q01DX001 (ip), vehicle: saline
[4] = T/C endpoint: mean survival time, dose: 200.0 mg/kg/injection, schedule: Q01DX001 (ip), vehicle: saline
[5] = T/C endpoint: mean survival time, dose: 400.0 mg/kg/injection, schedule: Q01DX001 (ip), vehicle: saline
[6] = T/C endpoint: mean survival time, dose: 400.0 mg/kg/injection, schedule: Q01DX009 (ip), vehicle: saline with Tween-80
[7] = T/C endpoint: mean survival time, dose: 400.0 mg/kg/injection, schedule: Q01DX001 (ip), vehicle: carboxymethylcellulose (CMC)
[8] = T/C endpoint: mean survival time, dose: 400.0 mg/kg/injection, schedule: Q04DX003 (ip), vehicle: Klucel (hydroxypropylcellulose) (HPC)
[9] = T/C endpoint: mean survival time, dose: 200.0 mg/kg/injection, schedule: Q01DX009 (ip), vehicle: Klucel (hydroxypropylcellulose) (HPC)

Question: Which survivor count [1] does the source give for `C/C(=N\N=C(/C)c1ccc(Cl)cc1)c1ccc(Cl)cc1` here?
Answer: 6 of 6

Question: `CSc1nn(C)c2cc(C)c3ccccc3[n+]12` was tested. Which survivor count (T/C endpoint: mean survival time, dose: 50.0 mg/kg/injection, schedule: Q01DX001 (ip), vehicle: saline) did it give?
Answer: 2 of 4

Question: And the survivor count [2]?
Answer: 0 of 4

Question: What about the survivor count [3] of the same molecule?
Answer: 0 of 4

Question: And the survivor count [4]?
Answer: 0 of 4

Question: And the survivor count [5]?
Answer: 0 of 4

Question: With `Cc1c(Cl)cccc1NC(=O)N1CCN(C)CC1` as the molecule, how does the survivor count [1] read?
Answer: 1 of 6 and 2 of 3

Question: How did the survivor count [6] turn out when `c1ccc([Si](OO[Si](c2ccccc2)(c2ccccc2)c2ccccc2)(c2ccccc2)c2ccccc2)cc1` was run?
Answer: 6 of 6

Question: `CC(=O)n1c(N)nc2ccccc21` was tested. Which survivor count [1] did it give?
Answer: 5 of 6

Question: `CC(=O)NC(CS)C(=O)O` (configuration not stated) was tested. Which T/C (T/C endpoint: median survival time, dose: 500.0 mg/kg/injection, schedule: Q01DX001 (ip), vehicle: saline, evaluated on day 5) did it give?
Answer: 98 % of control

Question: What about the T/C (T/C endpoint: median survival time, dose: 500.0 mg/kg/injection, schedule: Q01DX001 (ip), vehicle: saline, evaluated on day 30) of the same molecule?
Answer: 100 % of control

Question: And the T/C (T/C endpoint: median survival time, dose: 500.0 mg/kg/injection, schedule: Q01DX001 (ip), vehicle: saline, evaluated on day 55)?
Answer: 98 % of control

Question: And the T/C (T/C endpoint: median survival time, dose: 500.0 mg/kg/injection, schedule: Q01DX001 (ip), vehicle: saline, evaluated on day 60)?
Answer: 100 % of control

Question: What about the T/C (T/C endpoint: median survival time, dose: 500.0 mg/kg/injection, schedule: Q01DX001 (ip), vehicle: saline, evaluated on day 62) of the same molecule?
Answer: 100 % of control

Question: What about the T/C (T/C endpoint: median survival time, dose: 1000.0 mg/kg/injection, schedule: Q01DX001 (ip), vehicle: saline, evaluated on day 5) of the same molecule?
Answer: 90, 95, 98, 127 % of control

Question: What about the T/C (T/C endpoint: median survival time, dose: 1000.0 mg/kg/injection, schedule: Q01DX001 (ip), vehicle: saline, evaluated on day 30) of the same molecule?
Answer: 94 % of control

Question: What about the T/C (T/C endpoint: median survival time, dose: 1000.0 mg/kg/injection, schedule: Q01DX001 (ip), vehicle: saline, evaluated on day 45) of the same molecule?
Answer: 94 and 105 % of control

Question: What about the T/C (T/C endpoint: median survival time, dose: 1000.0 mg/kg/injection, schedule: Q01DX001 (ip), vehicle: saline, evaluated on day 55) of the same molecule?
Answer: 90 % of control

Question: What about the T/C (T/C endpoint: median survival time, dose: 1000.0 mg/kg/injection, schedule: Q01DX001 (ip), vehicle: saline, evaluated on day 60) of the same molecule?
Answer: 100 % of control

Question: What about the T/C (T/C endpoint: median survival time, dose: 1000.0 mg/kg/injection, schedule: Q01DX001 (ip), vehicle: saline, evaluated on day 62) of the same molecule?
Answer: 100 % of control

Question: And the T/C (T/C endpoint: median survival time, dose: 1000.0 mg/kg/injection, schedule: Q01DX001 (ip), vehicle: saline, evaluated on day 90)?
Answer: 100 % of control (2×)

Question: What about the T/C (T/C endpoint: median survival time, dose: 1500.0 mg/kg/injection, schedule: Q01DX001 (ip), vehicle: saline, evaluated on day 5) of the same molecule?
Answer: 95, 100, 133 % of control

Question: And the T/C (T/C endpoint: median survival time, dose: 1500.0 mg/kg/injection, schedule: Q01DX001 (ip), vehicle: saline, evaluated on day 45)?
Answer: 94 and 111 % of control

Question: What about the T/C (T/C endpoint: median survival time, dose: 1500.0 mg/kg/injection, schedule: Q01DX001 (ip), vehicle: saline, evaluated on day 90) of the same molecule?
Answer: 100 and 111 % of control

Question: What does the source list for `CN(C)CCCNCC(=O)N1CCN(C(=O)CNCCCN(C)C)CC1`?
Answer: survivor count (T/C endpoint: mean survival time, dose: 200.0 mg/kg/injection, schedule: Q01DX001 (ip), vehicle: carboxymethylcellulose (CMC)): 2 of 4; survivor count [7]: 2 of 4

Question: For `CC(=O)c1cccc(NC(=O)Oc2ccc(F)cc2Cl)c1`, which survivor count [1] is on record?
Answer: 4 of 6

Question: With `Cc1ccc(C(=O)CCl)o1` as the molecule, how does the survivor count (T/C endpoint: mean survival time, dose: 400.0 mg/kg/injection, schedule: Q04DX003 (ip), vehicle: saline with Tween-80) read?
Answer: 3 of 6

Question: With `O=C(Nc1ccc(Cl)cc1)Nc1ccccc1F` as the molecule, how does the survivor count (T/C endpoint: mean survival time, dose: 100.0 mg/kg/injection, schedule: Q04DX003 (ip), vehicle: saline with Tween-80) read?
Answer: 6 of 6

Question: Which results are given for `CCN(CCCl)CCCNCc1c2ccccc2c(C)c2ccccc12`?
Answer: T/C (T/C endpoint: mean survival time, dose: 2.5 mg/kg/injection, schedule: Q01DX005 (ip), vehicle: saline): 127 % of control; survivor count (T/C endpoint: mean survival time, dose: 10.0 mg/kg/injection, schedule: Q01DX005 (ip), vehicle: saline): 0 of 6; survivor count (T/C endpoint: mean survival time, dose: 15.0 mg/kg/injection, schedule: Q01DX009 (ip), vehicle: saline): 1 of 6; survivor count (T/C endpoint: mean survival time, dose: 30.0 mg/kg/injection, schedule: Q01DX009 (ip), vehicle: saline): 4 of 6; survivor count (T/C endpoint: mean survival time, dose: 45.0 mg/kg/injection, schedule: Q01DX009 (ip), vehicle: saline): 0 of 6

Question: `CCOC=NC1=C(Cl)C(=O)C(N=COCC)=C(Cl)C1=O` was tested. Which survivor count [8] did it give?
Answer: 5 of 6

Question: Which results are given for `CCC[CH2][Sn]1([CH2]CCC)[O]C(=O)c2ccc(C(=O)O)cc2C(=O)[O]1`?
Answer: survivor count (T/C endpoint: mean survival time, dose: 10.0 mg/kg/injection, schedule: Q01DX001 (ip), vehicle: saline): 4 of 6; survivor count (T/C endpoint: mean survival time, dose: 20.0 mg/kg/injection, schedule: Q01DX001 (ip), vehicle: saline): 2 of 6; survivor count (T/C endpoint: mean survival time, dose: 40.0 mg/kg/injection, schedule: Q01DX001 (ip), vehicle: saline): 5 of 6; survivor count [2]: 0 of 6; survivor count [3]: 0 of 6; survivor count [4]: 0 of 6; survivor count [5]: 0 of 6

Question: With `CC(=O)Oc1ccc2c(C)cc(=O)oc2c1` as the molecule, how does the survivor count [5] read?
Answer: 2 of 4

Question: How did the survivor count [7] turn out when `CN1c2ccccc2Sc2ccccc21` was run?
Answer: 0 of 4

Question: With `CC(=O)NCCc1ccc(S(=O)(=O)F)cc1` as the molecule, how does the survivor count [6] read?
Answer: 1 of 6

Question: How did the survivor count (T/C endpoint: mean survival time, dose: 200.0 mg/kg/injection, schedule: Q04DX003 (ip), vehicle: acetone) turn out when `CNC(=S)n1ncnc1NC=O` was run?
Answer: 1 of 6

Question: What about the survivor count (T/C endpoint: mean survival time, dose: 400.0 mg/kg/injection, schedule: Q04DX003 (ip), vehicle: acetone) of the same molecule?
Answer: 0 of 6

Question: Which T/C (T/C endpoint: mean survival time, dose: 20.0 mg/kg/injection, schedule: Q01DX001 (ip), vehicle: saline with Tween-80) does the source give for `O=NN(CCCl)C(=O)NC(CCC(=O)O)C(=O)O` (configuration not stated) here?
Answer: 128 % of control

Question: And the T/C (T/C endpoint: mean survival time, dose: 30.0 mg/kg/injection, schedule: Q01DX001 (ip), vehicle: saline with Tween-80)?
Answer: 132 % of control

Question: What about the T/C (T/C endpoint: mean survival time, dose: 44.0 mg/kg/injection, schedule: Q01DX001 (ip), vehicle: saline with Tween-80) of the same molecule?
Answer: 142 % of control

Question: Which survivor count [6] does the source give for `CCOC(=O)c1cnn(C(N)=O)c1N` here?
Answer: 2 of 6

Question: Which T/C (T/C endpoint: mean survival time, dose: 50.0 mg/kg/injection, schedule: Q01DX005 (ip), vehicle: water) does the source give for `C[n+]1c(-c2cc(C(F)(F)F)cc(C(F)(F)F)c2)c2cc(N)ccc2c2ccc(N)cc21` here?
Answer: 134 % of control

Question: And the survivor count (T/C endpoint: mean survival time, dose: 200.0 mg/kg/injection, schedule: Q01DX005 (ip), vehicle: water)?
Answer: 4 of 4

Question: And the survivor count (T/C endpoint: mean survival time, dose: 400.0 mg/kg/injection, schedule: Q01DX005 (ip), vehicle: water)?
Answer: 0 of 4

Question: How did the T/C [8] turn out when `O=C(Cc1ccc(N(CCCl)CCCl)cc1)NC1CCCC1` was run?
Answer: 132 % of control

Question: What about the survivor count (T/C endpoint: mean survival time, dose: 600.0 mg/kg/injection, schedule: Q04DX003 (ip), vehicle: Klucel (hydroxypropylcellulose) (HPC)) of the same molecule?
Answer: 3 of 6 and 6 of 6

Question: Which survivor count [8] does the source give for `c1ccc([P+]2(Cc3cccc4ccccc34)CCc3[nH]c4ccccc4c3C2)cc1` (configuration not stated) here?
Answer: 6 of 6

Question: What does the source list for `O=C(CC(=O)c1ccccc1)Nc1ccccc1`?
Answer: survivor count (T/C endpoint: mean survival time, dose: 200.0 mg/kg/injection, schedule: Q01DX009 (ip), vehicle: gum acacia): 6 of 6; survivor count (T/C endpoint: mean survival time, dose: 400.0 mg/kg/injection, schedule: Q01DX009 (ip), vehicle: gum acacia): 3 of 3

Question: For `CCCCCCCN(CCCCCCC)CC(O)c1cc2ccc(Cl)cc2c2cccnc12` (configuration not stated), which survivor count [9] is on record?
Answer: 0 of 6

Question: And the survivor count [8]?
Answer: 5 of 6

Question: What does the source list for `Cc1ccn2c(=O)c(CCBr)c(C)nc2c1`?
Answer: survivor count (T/C endpoint: mean survival time, dose: 37.5 mg/kg/injection, schedule: Q04DX003 (ip), vehicle: saline): 6 of 6; survivor count (T/C endpoint: mean survival time, dose: 75.0 mg/kg/injection, schedule: Q04DX003 (ip), vehicle: saline): 1 of 6

Question: For `Cc1ccc(C)c(NC(=O)Oc2ccc3ccccc3c2)c1`, which survivor count [9] is on record?
Answer: 6 of 6

Question: `O=C(C[n+]1cccc2ccccc21)c1ccc(-c2ccc(C(=O)C[n+]3cccc4ccccc43)cc2)cc1` was tested. Which survivor count [3] did it give?
Answer: 0 of 6

Question: And the survivor count [4]?
Answer: 0 of 6

Question: And the survivor count [5]?
Answer: 0 of 6
